In paper PMC12255046:
Results are given in words; binding and its absence hold for the method and conditions named. In cells and extracts the contact can be indirect.

Protein sequences, listed by entry. Tags and fused reporters are not part of them. Lines headed by an entry give the natural chain unless they say otherwise; changes in a name come on top.
UniProt Q07157, whole entry: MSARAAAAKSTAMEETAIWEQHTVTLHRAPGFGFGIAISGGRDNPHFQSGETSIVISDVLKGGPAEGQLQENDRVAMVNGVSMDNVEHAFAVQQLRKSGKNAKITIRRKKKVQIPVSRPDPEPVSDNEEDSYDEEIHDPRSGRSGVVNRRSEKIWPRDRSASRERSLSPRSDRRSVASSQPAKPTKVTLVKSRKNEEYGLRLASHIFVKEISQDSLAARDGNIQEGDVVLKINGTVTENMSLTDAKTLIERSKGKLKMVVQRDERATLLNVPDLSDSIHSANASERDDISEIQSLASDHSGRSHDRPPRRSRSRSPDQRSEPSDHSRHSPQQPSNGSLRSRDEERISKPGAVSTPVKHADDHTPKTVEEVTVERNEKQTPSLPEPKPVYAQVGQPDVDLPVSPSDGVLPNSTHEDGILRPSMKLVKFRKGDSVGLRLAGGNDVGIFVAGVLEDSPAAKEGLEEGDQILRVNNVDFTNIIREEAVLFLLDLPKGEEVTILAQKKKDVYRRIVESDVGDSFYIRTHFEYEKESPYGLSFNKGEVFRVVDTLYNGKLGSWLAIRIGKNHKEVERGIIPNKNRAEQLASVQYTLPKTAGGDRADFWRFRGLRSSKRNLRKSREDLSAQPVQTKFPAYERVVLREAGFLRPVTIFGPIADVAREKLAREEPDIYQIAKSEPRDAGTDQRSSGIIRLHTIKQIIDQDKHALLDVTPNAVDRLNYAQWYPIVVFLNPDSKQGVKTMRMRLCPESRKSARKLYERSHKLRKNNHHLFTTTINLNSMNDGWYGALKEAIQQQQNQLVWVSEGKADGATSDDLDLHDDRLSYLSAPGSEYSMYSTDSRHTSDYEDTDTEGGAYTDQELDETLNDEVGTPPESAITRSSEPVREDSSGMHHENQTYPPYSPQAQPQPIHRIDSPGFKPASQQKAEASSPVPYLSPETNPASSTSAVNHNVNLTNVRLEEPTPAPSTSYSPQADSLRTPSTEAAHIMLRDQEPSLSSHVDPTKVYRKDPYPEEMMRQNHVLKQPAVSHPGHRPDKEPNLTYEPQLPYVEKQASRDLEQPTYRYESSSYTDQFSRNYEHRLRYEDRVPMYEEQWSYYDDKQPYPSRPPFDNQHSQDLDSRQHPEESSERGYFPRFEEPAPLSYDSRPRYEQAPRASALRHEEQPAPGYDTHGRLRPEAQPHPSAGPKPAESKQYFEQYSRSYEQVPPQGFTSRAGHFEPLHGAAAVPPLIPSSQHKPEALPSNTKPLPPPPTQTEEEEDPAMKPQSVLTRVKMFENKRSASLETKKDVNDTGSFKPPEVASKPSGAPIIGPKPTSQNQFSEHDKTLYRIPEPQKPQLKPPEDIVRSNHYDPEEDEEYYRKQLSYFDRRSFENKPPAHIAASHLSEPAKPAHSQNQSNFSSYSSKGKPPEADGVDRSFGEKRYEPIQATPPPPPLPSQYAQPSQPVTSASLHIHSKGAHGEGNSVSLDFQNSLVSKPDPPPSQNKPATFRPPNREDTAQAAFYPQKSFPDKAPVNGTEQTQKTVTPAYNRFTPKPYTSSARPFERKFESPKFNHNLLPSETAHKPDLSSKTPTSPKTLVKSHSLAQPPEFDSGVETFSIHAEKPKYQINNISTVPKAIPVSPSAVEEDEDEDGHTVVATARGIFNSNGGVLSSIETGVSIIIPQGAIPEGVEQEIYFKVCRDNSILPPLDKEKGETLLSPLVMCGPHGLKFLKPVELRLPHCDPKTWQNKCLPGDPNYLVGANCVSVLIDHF

Target: GFP-tagged ZO-1 full-length protein (UniProt Q07157)
Assay: pull-down; only the target purified

With “SARS-CoV-2 Envelope (E) protein with mutated PBM (quadruplex of glycine instead of the PBM), produce (from UniProt P0DTC4 1-75)” as the substance, how does the binding read?
Its binding is “no binding”.
